The other results are listed elsewhere or left out. These are further read-outs of the screen, such as a control signal, another cell line or another target. No call is given for them. Most of these compounds were active or inconclusive in the main read-out, so they are no random draw. Potencies come from curve fits of mixed quality, noted in brackets.
Experiment: qHTS Assay for Lipid Storage Modulators in Drosophila S3 Cells;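 on cell number change: cells counted by Cell Tracker Red CMTPX staining in the red channel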
Conditions: BODIPY lipid droplet fluorescence, 18-24 h; for cell number change: measured here: cell count max response, cells fed with added oleic acid
How it was run: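 Drosophila S3 cells loaded with oleic acid (400 uM, as added) and compounds at several concentrations; lipid droplets imaged by 488-nm laser-scanning cytometry, 500–530 nm intensity and object ratio to cell channel. Percent activity normalized to 20 uM Triacsin C.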

[1] = measured here: cell number channel AC50, cells fed with added oleic acid
[2] = measured here: lipid fluorescence (Fed channel) AC50, cells fed with added oleic acid

Compound: Cc1ccccc1Nc1c(-c2ccc(N3CCOCC3)cc2)nc2cnccn12
- cell number change: 41.4%

Compound: O=C(O)CCCn1cc(NC(=O)c2c(F)cccc2F)cn1
- cell number change: -36.4%
- AC50 [1]: 16.4 µM [falling, single point]
- AC50 [2]: 29.1 µM [falling, single point]

Compound: CC(C)OC(=O)CSc1nc(-c2ccc(F)cc2)nc2ccc(F)cc12
- cell number change: 21%
- AC50 [2]: 18.4 µM [rising, single point]

Compound: CCCN(C(=O)C1CCCN(c2ncnc3c2nc2n3CCCCC2)C1)c1ccc(F)cc1 (stereo unspecified)
- cell number change: -20.3%
- AC50 [2]: 1.03 µM [rising, full curve]

Compound: CCn1c(SCC(=O)c2ccc(Cl)s2)nnc1-c1cccs1
- cell number change: -5.22%

Compound: CC1CN(C(=O)c2cccn(Cc3c(Cl)cccc3Cl)c2=O)CC(C)O1 (stereo unspecified)
- cell number change: -44.3%
- AC50 [1]: 29.1 µM [falling, partial curve, poor fit]

Compound: Cc1[nH]ncc1-c1nc2ccccc2[nH]1
- cell number change: -19.7%
- AC50 [2]: 0.398 µM [rising, full curve, poor fit]

Compound: Cn1c(COc2ccc(F)cc2)nnc1SCC(=O)NC1CC1
- cell number change: 29.3%
- AC50 [1]: 0.461 µM [rising, full curve, poor fit]

Compound: Cc1ccc(NC(=O)CCN2C(=O)c3ccccc3S2(=O)=O)cc1C
- AC50 [1]: 6.51 µM [rising, single point]

Compound: COCc1c(C(=O)N2CCc3ccccc32)oc2ccccc12
- cell number change: 32.1%
- AC50 [2]: 3.66 µM [rising, single point]

Compound: COc1ccc(N(C)C(=O)c2cc3c(s2)-c2c(C)cccc2OC3)c(OC)c1
- AC50 [2]: 29.1 µM [rising, single point]

Compound: CCc1nc(SCC(=O)N2CCN(C(=O)c3ccco3)CC2)c2c3c(sc2n1)CCCC3
- cell number change: 84%
- AC50 [1]: 10.3 µM [rising, partial curve]
- AC50 [2]: 7.31 µM [rising, partial curve]

Compound: Clc1ccccc1-c1nc2nc3ccccc3nc2n1-c1ccc2c(c1)OCO2
- cell number change: 60.6%
- AC50 [1]: 29.1 µM [rising, single point]
- AC50 [2]: 1.46 µM [rising, partial curve]

Compound: CC(c1ccccc1)n1cc(C(=O)NCc2cccnc2)nn1 (stereo unspecified)
- AC50 [1]: 6.51 µM [rising, single point]
- AC50 [2]: 6.51 µM [rising, single point]

Compound: CS(=O)(=O)N(CC(=O)NC1CCCC1)Cc1ccc(F)cc1
- cell number change: -23.7%
- AC50 [2]: 0.092 µM [falling, full curve, poor fit]

Compound: Cc1ccc(C(=O)O)cc1NC(=S)NC(=O)Cc1ccccc1
- cell number change: -5.44%
- AC50 [2]: 3.66 µM [falling, single point]

Compound: CCOC(=O)CSC1=C(C#N)C(=O)NC(c2ccc(OC)cc2)S1 (stereo unspecified)
- cell number change: -21.5%
- AC50 [2]: 18.4 µM [falling, partial curve]

Compound: Nc1nc(N2CCN(C(=O)c3ccco3)CC2)nc2ccc(Br)cc12
- cell number change: 21.3%
- AC50 [1]: 2.31 µM [rising, single point]
- AC50 [2]: 6.51 µM [rising, single point]

Compound: C=CCn1c(=NC(=O)c2cccs2)sc2cccc(OC)c21
- cell number change: 0.201%
- AC50 [2]: 0.184 µM [rising, full curve, poor fit]

Compound: COc1ccc(-c2ccc(-c3noc(C(C)C)n3)c(OC)n2)cc1
- cell number change: -17.8%

Compound: COc1ccc(N(Cc2ccccc2)N=O)cc1
- cell number change: 23.2%
- AC50 [2]: 0.58 µM [falling, single point]

Compound: Cc1c(NC(=S)NC(=O)Cc2ccccc2)cccc1C(=O)O
- cell number change: 40%

Compound: COc1ccc(CC(=O)O/N=C(\N)Cc2ccc([N+](=O)[O-])cc2)cc1
- cell number change: 2.3%

Compound: COc1ccc(CNC(=O)CCc2ccc(S(=O)(=O)N3CCCCCC3)cc2)cc1OC
- AC50 [2]: 32.6 µM [falling, single point]

Compound: Cc1cc(C)n(-c2cc(N3CCN(C(=O)c4cccc(Br)c4)CC3)ccc2[N+](=O)[O-])n1
- cell number change: -31.1%
- AC50 [1]: 29.1 µM [falling, single point]
- AC50 [2]: 7.31 µM [falling, partial curve, poor fit]

Compound: O=C(O)CCc1ccc(-c2ccc(Cl)cc2)o1
- cell number change: -30.5%
- AC50 [2]: 0.731 µM [falling, full curve]

Compound: O=C1NC2(CCCCCC2)C(=O)N1Cc1ccc(F)cc1Cl
- cell number change: -2.94%
- AC50 [2]: 6.51 µM [rising, single point]

Compound: Cc1cc(NC(=O)CSCC(=O)OCc2nnc(-c3ccccc3)o2)no1
- cell number change: 13%
- AC50 [2]: 0.146 µM [rising, full curve, poor fit]

Compound: Cc1cccn2c(=O)cc(CSc3nnc(NC(=O)COc4ccccc4)s3)nc12
- cell number change: 21.1%
- AC50 [2]: 20.6 µM [rising, single point]

Compound: CC(=O)Nc1nnc(SCC(=O)NCC2CCCO2)s1 (stereo unspecified)
- AC50 [1]: 0.0164 µM [falling, full curve, poor fit]

Compound: CCOc1ccc(-n2c(C)nc3cc(C(=O)NCc4ccco4)ccc32)cc1
- cell number change: 22%
- AC50 [2]: 29.1 µM [rising, single point]

Compound: CCN(CC)S(=O)(=O)c1cccc(-c2nnc(SCCCC(=O)c3ccc(F)cc3)o2)c1
- cell number change: -27.6%

Compound: COc1ccccc1N(CC(=O)NC1CCCC1)C(=O)CCC(=O)Nc1ccccn1
- cell number change: 5.22%
- AC50 [2]: 1.03 µM [rising, single point]

Compound: COc1cccc(C(C#N)N2CCCCC2)c1O (stereo unspecified)
- cell number change: -4.88%
- AC50 [2]: 14.6 µM [rising, partial curve, poor fit]

Compound: COc1ccc(OC)c(NC(=O)c2[nH]c(C)c(C(C)=O)c2C)c1
- cell number change: 55.2%
- AC50 [1]: 3.26 µM [rising, partial curve]
- AC50 [2]: 0.651 µM [rising, full curve]

Compound: C=CCNC(=S)NN(c1ccccc1)c1ccccc1
- cell number change: -19.6%

Compound: CCCNC(=O)/C=C/c1ccc(C(C)C)cc1
- cell number change: 15.5%
- AC50 [2]: 0.164 µM [rising, partial curve, poor fit]

Compound: Cc1ccc2nc(C)c(C(=O)N/N=C/c3ccccc3[N+](=O)[O-])cc2c1
- AC50 [1]: 6.51 µM [falling, single point]
- AC50 [2]: 0.0058 µM [rising, full curve, poor fit]

Compound: Cc1c(CCC(=O)O)c(=O)oc2cc(OCc3ccccc3Br)ccc12
- cell number change: 25.5%
- AC50 [2]: 29.1 µM [rising, single point]

Compound: COC(=O)c1ccc(NC(=O)CCN2C(=O)NC(C)(C)C2=O)cc1
- cell number change: 7.22%
- AC50 [2]: 3.26 µM [falling, single point]

Compound: O=C(COC(=O)Cc1ccc(Br)cc1)Nc1ccc(N2CCOCC2)cc1
- cell number change: -24.2%
- AC50 [2]: 29.1 µM [falling, single point]

Compound: N#CC1(NC(=O)COC(=O)c2ccccc2SCC(=O)N2CCCC2)CCCCC1
- cell number change: 2.16%

Compound: COc1ccc(OC)c(-n2c(N)c(C(=O)NCC3CCCO3)c3nc4ccccc4nc32)c1 (stereo unspecified)
- cell number change: 27%
- AC50 [2]: 2.59 µM [rising, partial curve]

Compound: CCOc1cc(/C=C2/SC(=S)N(CC3CCCO3)C2=O)ccc1O (stereo unspecified)
- cell number change: -13.4%
- AC50 [1]: 2.91 µM [falling, single point]
- AC50 [2]: 4.11 µM [falling, full curve, poor fit]

Compound: Cn1cccc1C(=O)C(=O)Nc1ccc(F)c(F)c1
- cell number change: -69.4%

Compound: CCCCn1c(N)c(N(CC(C)C)C(=O)c2ccncc2)c(=O)[nH]c1=O
- cell number change: -9.48%
- AC50 [2]: 7.31 µM [falling, partial curve, poor fit]

Compound: Cc1ccc(C2(C)NC(=O)N(CC(=O)NC(=O)NC3CCCC3)C2=O)cc1 (stereo unspecified)
- cell number change: -10.8%
- AC50 [2]: 29.1 µM [falling, single point]

Compound: O=C(NCc1ccncc1)C1CCN(S(=O)(=O)c2ccc(Cl)c(C(F)(F)F)c2)CC1
- AC50 [1]: 2.59 µM [rising, single point]

Compound: COc1ccccc1C(C)N(C)Cc1nc(COc2ccccc2)no1 (stereo unspecified)
- cell number change: 8.96%

Compound: O=C(CCS(=O)(=O)c1ccccc1)Nc1nc(-c2ccc(F)cc2)cs1
- cell number change: -3.1%
- AC50 [2]: 0.082 µM [rising, full curve, poor fit]

Compound: Cc1cc(C(=O)Nc2cccc(S(=O)(=O)N3CCCC3)c2)c2ccccc2n1
- cell number change: 8.73%
- AC50 [2]: 0.58 µM [falling, single point]

Compound: CCc1ccc(OCC(=O)NNC(=S)NC(=O)C2CCCCC2)c(Br)c1
- cell number change: -2.05%

Compound: NC(=O)CC(NC(=O)c1cccc(Br)c1)c1ccc(NC2CCCCCCC2)c([N+](=O)[O-])c1 (stereo unspecified)
- cell number change: -41.6%
- AC50 [1]: 0.58 µM [falling, full curve]
- AC50 [2]: 0.651 µM [falling, full curve]

Compound: O=S(=O)(CCN1CCN(c2ccccc2O)CC1)c1cc(Cl)ccc1Cl
- AC50 [2]: 6.51 µM [falling, single point]

Compound: COC(=O)[C@H]1Cc2cnoc2C[C@]1(C)C(=O)O
- cell number change: -17.6%
- AC50 [2]: 3.66 µM [falling, full curve]

Compound: C=CCS(=O)(=O)N1CCC(CCOc2ccccc2)(C(=O)OCC)CC1
- cell number change: -12.7%
- AC50 [2]: 29.1 µM [falling, single point]

Compound: CCOC(=O)c1c(NC(=O)CCNCc2ccco2)sc2c1CCC2
- cell number change: -13%
- AC50 [2]: 3.26 µM [rising, single point]

Compound: CC(C)(C)NC(=S)Nc1ccc(Br)cc1
- cell number change: -17.1%
- AC50 [2]: 0.731 µM [falling, single point]

Compound: CCC1=NN2C(=N)/C(=C\c3cccn3-c3ccc(C)cc3C)C(=O)N=C2S1
- cell number change: 64.7%
- AC50 [1]: 29.1 µM [rising, single point]

Compound: CC1CCC(C(C)C)C(OC(=O)CSc2n[nH]c(=O)[nH]c2=O)C1 (stereo unspecified)
- cell number change: 4.14%
- AC50 [2]: 3.66 µM [falling, single point]

Compound: CCCCCNc1nc2ccccc2nc1NS(=O)(=O)c1cccs1
- cell number change: 57.5%
- AC50 [1]: 1.03 µM [rising, full curve]
- AC50 [2]: 9.2 µM [rising, partial curve]

Compound: O=C(CCl)Nc1cn(-c2ccccc2)nc1-c1ccc(F)cc1
- cell number change: 32.5%
- AC50 [2]: 0.13 µM [rising, full curve, poor fit]

Reference: PubChem BioAssay AID2685 (National Center for Advancing Translational Sciences (NCATS), 2010)
